Reference: patent US10973798B2, “Dispersion of formononetin solid lipid nanoparticles and process for its preparation” (SRM INSTITUTE OF SCIENCE AND TECHNOLOGY, priority 2018, dated 2021)
For at least one compound, name, drawing or mass did not settle the structure.

Test: In-vitro drug release by dialysis bag diffusion technique and release kinetics
Format: physicochemical
Conditions: dialysis membrane, phosphate buffer pH 7.4, 37±0.5° C., 100 rpm, up to 1440 min (FIG. 21)

## COc1ccc(-c2coc3cc(O)ccc3c2=O)cc1 [formononetin, Formononetin]
  drug release (percentage cumulative drug release): 43.31%
